Measured values reported in PMC5461002.
Results are given in words; binding and its absence hold for the method and conditions named. In cells and extracts the contact can be indirect. For some of these results: A result given as binding can be weak or reduced; the word gives no strength.

Tests used:
[1] = target: 6xHis-RrgA(39-868) (S. pneumoniae TIGR4); assay: co-IP; pneumococcal protein (1-5 µg) held on magnetic Dynabeads by its antibody (anti-RrgA antiserum; anti-GST antibody for the control), then pIgR or PECAM-1 added, 30 min at room temperature, washed with PBS-T, Western blot; both purified
[2] = target: pneumococcal protein glutathione S-transferase (S. pneumoniae); assay: as above
[3] = target: pneumococcal surface protein A (codons 32-774) (S. pneumoniae TIGR4); assay: as above
[4] = target: RrgA on the surface of S. pneumoniae TIGR4 (S. pneumoniae TIGR4); assay: pull-down; whole pneumococci (10^7 CFU/ml in PBS) incubated with HBMEC lysate 1 h at 4°C, bacteria pelleted, Western blot of the pellet for the receptor; pneumolysin as loading control

Binder | binding [1] | binding [2] | binding [3] | binding [4]
mouse pIgR (R&D Systems, catalog no. CF-2800) (receptor, UniProt O70570 19-645) KSPIFGPQEVSSIEGDSVSITCYYPDTSVNRHTRKYWCRQGASGMCTTLISSNGYLSKEYSGRANLINFPENNTFVINIEQLTQDDTGSYKCGLGTSNRGLSFDVSLEVSQVPELPSDTHVYTKDIGRNVTIECPFKRENAPSKKSLCKKTNQSCELVIDSTEKVNPSYIGRAKLFMKGTDLTVFYVNISHLTHNDAGLYICQAGEGPSADKKNVDLQVLAPEPELLYKDLRSSVTFECDLGREVANEAKYLCRMNKETCDVIINTLGKRDPDFEGRILITPKDDNGRFSVLITGLRKEDAGHYQCGAHSSGLPQEGWPIQTWQLFVNEESTIPNRRSVVKGVTGGSVAIACPYNPKESSSLKYWCRWEGDGNGHCPVLVGTQAQVQEEYEGRLALFDQPGNGTYTVILNQLTTEDAGFYWCLTNGDSRWRTTIELQVAEATREPNLEVTPQNATAVLGETFTVSCHYPCKFYSQEKYWCKWSNKGCHILPSHDEGARQSSVSCDQSSQLVSMTLNPVSKEDEGWYWCGVKQGQTYGETTAIYIAVEERTRGSSHVNPTDANARAKVALEEEVVDSSISEKENKAIPNPGPFANEREIQNVGDQAQENRASGDAGSADGQSRSSSSK | binds | no binding | no binding | –
endothelial protein C receptor expressed by HBMECs (receptor, UniProt Q9UNN8 18-238) SQDASDGLQRLHMLQISYFRDPYHVWYQGNASLGGHLTHVLEGPDTNTTIIQLQPLQEPESWARTQSGLQSYLLQFHGLVRLVHQERTLAFPLTIRCFLGCELPPEGSRAHVFFEVAVNGSSFVSFRPERALWQADTQVTSGVVTFTLQQLNAYNRTRYELREFLEDTCVQYVQKHISAENTKGSQTSRSYTSLVLGVLVGSFIIAGVAVGIFLCTGGRRC | – | – | – | no binding
